Reference: US11464791B2, “Use of paricalcitol in the treatment of inflammatory anaemia” (priority 2014, dated 2022)

Experiment: Study A: evolution of IV Fe supplement doses
Type: in vivo, human

## C[C@H](/C=C/[C@H](C)C(C)(C)O)[C@H]1CC[C@H]2/C(=C/C=C3C[C@@H](O)C[C@H](O)C3)CCC[C@]12C [paricalcitol, 19-nor-1, 25-(OH) 2-vitamin D2]
Month 0
  dose of IV Fe: 96±13 mg/week
Month 3
  dose of IV Fe: 109±20 mg/week
Month 6
  dose of IV Fe: 96±19 mg/week
